Reference: article PMC12830901
Numbering of substitutions follows the chain as printed. These are yes or no findings as the source states them, for the method shown. In cells and extracts the contact can be indirect. Tags and fused reporters may be left off the sequences shown.

Protein sequences, listed by entry. Tags and fused reporters are not part of them.
UniProt P49407: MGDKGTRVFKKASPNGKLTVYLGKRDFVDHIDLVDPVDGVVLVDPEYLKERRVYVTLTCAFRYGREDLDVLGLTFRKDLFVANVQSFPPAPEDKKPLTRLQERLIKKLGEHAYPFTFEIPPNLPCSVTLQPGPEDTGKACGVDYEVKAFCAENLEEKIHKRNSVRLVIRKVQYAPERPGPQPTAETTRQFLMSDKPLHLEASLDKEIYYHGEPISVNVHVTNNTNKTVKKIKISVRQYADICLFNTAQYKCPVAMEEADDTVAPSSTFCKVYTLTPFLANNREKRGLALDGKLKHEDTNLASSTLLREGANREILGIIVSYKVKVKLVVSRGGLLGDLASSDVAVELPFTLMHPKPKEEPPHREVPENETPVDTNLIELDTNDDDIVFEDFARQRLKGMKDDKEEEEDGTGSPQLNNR

Tests used:
Experiment in all cases: split reporter; receptor-SmBiT and LgBiT-mini-G, LgBiT-mini-GΔα5 or LgBiT-β-arrestin transiently co-transfected in HEK293T; live cells 48 h after transfection; NanoBiT PPI system (Promega), luminescence normalised by the expression of both constructs; in the mutant and ΔHA panels the mini-GΔα5 signal was subtracted and results given as a percentage of the reference construct
[1] = molecular target: T1, ADGRL4 'C-terminal Fragment 1' (CTF1), HA- and SmBiT-tagged (human) (UniProt Q9HBW9)
T1 sequence: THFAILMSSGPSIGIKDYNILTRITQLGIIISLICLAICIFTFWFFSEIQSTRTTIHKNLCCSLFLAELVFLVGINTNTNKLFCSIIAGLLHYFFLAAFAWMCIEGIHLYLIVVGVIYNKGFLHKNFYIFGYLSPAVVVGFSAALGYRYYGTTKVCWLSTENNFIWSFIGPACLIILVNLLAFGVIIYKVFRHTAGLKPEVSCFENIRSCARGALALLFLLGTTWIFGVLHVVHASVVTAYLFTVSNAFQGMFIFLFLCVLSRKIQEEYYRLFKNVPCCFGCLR

[2] = molecular target: T2, ADGRL4 'Full-Length 1' (FL1), HA- and SmBiT-tagged (human) (UniProt Q9HBW9)
T2 sequence: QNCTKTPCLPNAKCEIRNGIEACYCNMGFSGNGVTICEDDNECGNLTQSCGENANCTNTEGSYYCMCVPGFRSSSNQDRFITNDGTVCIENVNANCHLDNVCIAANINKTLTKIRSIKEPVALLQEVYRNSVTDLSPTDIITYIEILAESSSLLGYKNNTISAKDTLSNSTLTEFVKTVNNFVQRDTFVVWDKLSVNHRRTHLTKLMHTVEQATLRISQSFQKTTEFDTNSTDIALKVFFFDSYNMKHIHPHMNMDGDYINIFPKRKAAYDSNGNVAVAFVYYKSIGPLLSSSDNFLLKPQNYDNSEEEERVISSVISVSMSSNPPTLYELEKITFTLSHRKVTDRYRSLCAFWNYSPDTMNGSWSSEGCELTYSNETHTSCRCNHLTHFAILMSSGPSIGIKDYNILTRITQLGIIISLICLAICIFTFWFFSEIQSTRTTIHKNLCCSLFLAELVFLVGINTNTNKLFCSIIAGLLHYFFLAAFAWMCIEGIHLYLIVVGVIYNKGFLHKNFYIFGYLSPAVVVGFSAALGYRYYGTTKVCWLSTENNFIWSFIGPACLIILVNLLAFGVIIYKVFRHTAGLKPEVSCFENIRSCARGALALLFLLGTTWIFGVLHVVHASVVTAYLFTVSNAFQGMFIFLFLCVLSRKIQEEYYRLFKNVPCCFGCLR

[3] = molecular target: T3, ADGRL4 'Mutated Full-Length 1' (FLmut1), HA- and SmBiT-tagged (human) (UniProt Q9HBW9)
T3 sequence: T2 sequence with H386A, T388A

Measured: binding

LgBiT-βarr1 (β-arrestin 1) (from UniProt P49407 1-418)
no binding: all assays above

LgBiT-βarr2 (β-arrestin 2) (from UniProt P32121 1-409)
no binding: all assays above
